Results are given in words; binding and its absence hold for the method and conditions named. In cells and extracts the contact can be indirect. A result given as binding can be weak or reduced; the word gives no strength.
Molecular target: EhVps32 (Entamoeba histolytica (endogenous in trophozoites, strain HM1:IMSS)) (UniProt C4M1A5)
Experiment: co-IP; mouse α-rEhVps32 antibody on protein G-agarose, incubated overnight at 4°C with pre-cleared trophozoite lysates (basal conditions and 30 min of erythrophagocytosis); western blot of the immunoprecipitates; pre-immune serum as control

Amino acid sequences for entries named in this document (tags omitted). A change or cut given only in a name is not applied to a line headed by its entry.
UniProt C4M1A5: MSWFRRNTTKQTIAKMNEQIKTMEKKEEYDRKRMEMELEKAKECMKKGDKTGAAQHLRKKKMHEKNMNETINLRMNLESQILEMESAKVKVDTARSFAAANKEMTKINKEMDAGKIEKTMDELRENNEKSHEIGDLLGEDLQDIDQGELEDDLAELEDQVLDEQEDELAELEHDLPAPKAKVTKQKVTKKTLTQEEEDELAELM
UniProt C4M7T5: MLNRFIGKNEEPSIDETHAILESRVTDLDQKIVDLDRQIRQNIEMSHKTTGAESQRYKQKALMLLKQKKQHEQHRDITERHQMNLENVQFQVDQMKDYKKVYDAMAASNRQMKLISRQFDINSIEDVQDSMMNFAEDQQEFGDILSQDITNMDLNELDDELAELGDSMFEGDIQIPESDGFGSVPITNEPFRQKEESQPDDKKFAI
UniProt C4LZV3: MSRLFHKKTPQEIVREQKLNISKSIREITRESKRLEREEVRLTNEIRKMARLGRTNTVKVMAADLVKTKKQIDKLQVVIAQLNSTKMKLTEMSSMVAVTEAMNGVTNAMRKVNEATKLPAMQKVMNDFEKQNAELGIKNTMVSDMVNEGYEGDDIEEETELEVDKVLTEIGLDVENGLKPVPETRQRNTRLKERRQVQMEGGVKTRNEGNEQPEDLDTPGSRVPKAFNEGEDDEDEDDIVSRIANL
UniProt C4M2Y2: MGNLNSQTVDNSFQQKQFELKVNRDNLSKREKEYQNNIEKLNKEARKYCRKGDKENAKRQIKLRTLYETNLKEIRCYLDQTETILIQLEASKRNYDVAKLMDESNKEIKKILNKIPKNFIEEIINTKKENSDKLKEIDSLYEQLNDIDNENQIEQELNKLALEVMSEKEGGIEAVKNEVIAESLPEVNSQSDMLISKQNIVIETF

Substance: EhVps20 (from UniProt C4M7T5)
- binding: binds

Substance: EhVps2 (from UniProt C4LZV3)
- binding: binds

Substance: EhVps24 (from UniProt C4M2Y2)
- binding: binds
